Record: PubChem BioAssay AID504774 (Drosophila RNAi Screening Center, 2011)
The deposit covers about 23,000 reagents; below is a random part of those that have a named target and a result. 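Values are quantile-normalised luminescence on an arbitrary scale; higher means more cells surviving MMS.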 Names joined by + are all predicted targets of the reagent. Not all columns of the deposit are shown.

- Test: 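Fly genes whose loss alters survival after alkylation damage to DNA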 (primary screen)
- Cells: Drosophila Kc167 cells
- Reagents: long dsRNA against Drosophila genes, about 0.25 µg dsRNA per well
- Time to read-out: about 6 days: 3 days knock-down, then 3 days with or without MMS
- Treatment: methyl methanesulphonate 0.004% (w/v) for 3 days after knock-down
- Measured: 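ATP-dependent luminescence as a measure of live cells in MMS-exposed wells, quantile normalised within each plate, with replicate values also given as a mean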
- Scale: mean viability with MMS and viability with MMS: higher = more surviving cells after MMS

no.	target gene	amplicon	mean viability with MMS	viability with MMS, replicate 1
1	CG32687	DRSC18210	3.53e6	4.06e6
2	CG32687	DRSC18237	3.50e6	4.00e6
3	Ak3	DRSC16075	3.56e6	4.15e6
4	CG31419	DRSC15771	3.47e6	3.94e6
5	CG13365	DRSC17899	3.67e6	4.10e6
6	CG15625	DRSC00460	3.48e6	4.06e6
7	lolal	DRSC06948	3.55e6	4.10e6
8	Trmt6	DRSC03272	3.71e6	4.05e6
9	CG8159	DRSC16392	3.51e6	4.01e6
10	CG17754	DRSC18131	3.56e6	4.00e6
11	Gr28a	DRSC02290	3.48e6	3.97e6
12	Osi5	DRSC12276	3.59e6	4.06e6
13	CG10063	DRSC09688	3.47e6	3.97e6
14	CG10298	DRSC12522	3.51e6	3.98e6
15	dpr5	DRSC15766	3.64e6	4.04e6
16	bnb	DRSC20314	3.68e6	4.11e6
17	eEF1alpha1	DRSC07421	3.19e6	3.43e6
18	BBS8	DRSC00360	3.60e6	4.01e6
19	CG33251 (retired record) + CG9915	DRSC20217	3.56e6	4.05e6
20	CG14111	DRSC10114	3.59e6	3.98e6
21	CG8908	DRSC07297	3.48e6	3.94e6
22	Klp10A	DRSC19601	3.62e6	3.80e6

6 entries from above, sorted by “viability with MMS, replicate 1”, highest first.
target gene	amplicon	mean viability with MMS	viability with MMS, replicate 1
bnb	DRSC20314	3.68e6	4.11e6
CG33251 (retired record) + CG9915	DRSC20217	3.56e6	4.05e6
dpr5	DRSC15766	3.64e6	4.04e6
BBS8	DRSC00360	3.60e6	4.01e6
CG14111	DRSC10114	3.59e6	3.98e6
eEF1alpha1	DRSC07421	3.19e6	3.43e6

Further results:
no.	target gene	amplicon	mean viability with MMS	viability with MMS, replicate 1
23	E(spl)m3-HLH	DRSC16694	3.08e6	3.62e6
24	E(spl)m3-HLH	DRSC23160	3.08e6	3.49e6
25	ttv	DRSC07709	3.62e6	4.00e6
26	Rep	DRSC07526	3.63e6	4.14e6
27	CG33493	DRSC10642	3.67e6	4.13e6
28	CG14297	DRSC14776	3.42e6	3.97e6
29	CG30156	DRSC04959	3.42e6	3.91e6
30	CG31279	DRSC13158	3.41e6	3.89e6
31	CG7054	DRSC16185	3.55e6	4.02e6
32	CG14186	DRSC10185	3.72e6	4.22e6
33	CG10750	DRSC02105	3.40e6	3.64e6
34	FAM21	DRSC06623	3.54e6	4.00e6
35	CG1314	DRSC20495	3.60e6	4.02e6
36	CG34404	DRSC15335	3.50e6	4.08e6
37	CG34404	DRSC15978	3.39e6	3.81e6
38	Pos	DRSC15415	3.62e6	4.21e6
39	CG13605	DRSC14608	3.67e6	4.16e6
40	CG11663	DRSC17793	3.19e6	3.73e6
41	CG11663	DRSC23063	3.52e6	3.90e6
42	Cpr50Cb	DRSC06975	3.47e6	4.06e6
43	CG6664	DRSC10690	3.70e6	4.10e6
44	CG34015	DRSC19140	3.61e6	4.09e6
45	CG32487	DRSC21745	3.43e6	3.87e6
46	CG12994	DRSC19192	3.64e6	4.09e6
47	CG12994	DRSC19514	3.18e6	3.51e6
48	Ace	DRSC12959	3.64e6	4.13e6
49	Ace	DRSC14100	3.49e6	3.94e6
50	scf	DRSC08735	3.66e6	4.19e6
51	CG4714	DRSC06883	3.62e6	4.11e6
52	indra	DRSC08558	3.68e6	4.10e6
53	spn-E	DRSC17064	3.57e6	3.94e6
54	Pld	DRSC04854	3.66e6	4.16e6
55	Ac3	DRSC03692	3.68e6	4.22e6
56	PCNA	DRSC07653	3.30e6	3.81e6
57	CG5002	DRSC06911	3.51e6	3.93e6
58	alpha4GT1	DRSC00488	3.68e6	4.14e6
59	geko	DRSC10044	3.61e6	4.03e6
60	geko	DRSC10045	3.55e6	3.91e6
61	Sytbeta	DRSC10009	3.81e6	4.20e6
62	Sytbeta	DRSC10351	3.50e6	4.00e6
63	pav	DRSC08730	3.43e6	3.89e6
64	galectin	DRSC00305	3.54e6	4.06e6
65	CG12689	DRSC17879	3.51e6	3.95e6
66	Coa8	DRSC17959	3.59e6	4.15e6
67	t-Grip91	DRSC01506	3.59e6	4.05e6
68	CG10694	DRSC14263	3.56e6	4.13e6
